± gives the standard deviation of the averaged measurements. Small differences around the control level are noise.
Assays:
Experiment in all cases: level (log10 ratio to DMSO vehicle control); higher = higher biomarker level / cell amount than vehicle control
[1] = compound: C=C(C)C(=O)OCCC(F)(F)C(F)(F)C(F)(F)C(F)(F)C(F)(F)C(F)(F)F [6:2 Fluorotelomer methacrylate] (in DMSO); details: 2200 nM
Method: (§1)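 BioMAP Diversity Plus panel of 12 human primary cell co-culture systems (3C, 4H, LPS, SAg, BT, BF4T, BE3C, CASM3C, HDF3CGF, KF3CT, MyoF, Mphg). Compounds were added 1 h before stimulation and left for 24 h (MyoF 48 h; BT 72 h for soluble read-outs or 6 d for IgG). Biomarkers were read by ELISA, cytotoxicity by SRB, PBMC viability and proliferation by Alamar Blue. Each well value was divided by the mean of 8 DMSO control wells on the same plate and log10 transformed; duplicate blinded samples were tested at 4 concentrations.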

[2] = compound: CNS(=O)(=O)C(F)(F)C(F)(F)C(F)(F)C(F)(F)C(F)(F)C(F)(F)C(F)(F)C(F)(F)F [N-Methylperfluorooctanesulfonamide] (in DMSO); details: 2200 nM
Method: as §1

[3] = compound: FC(F)(F)C(F)(F)C(F)(F)C(F)(F)CCI [1H,1H,2H,2H-Perfluorohexyl iodide] (in DMSO); details: 2200 nM
Method: as §1

[4] = compound: FC(F)(F)C(F)(F)CNCC(F)(F)C(F)(F)F [Bis(1H,1H-perfluoropropyl)amine] (in DMSO); details: 2200 nM
Method: as §1

[5] = compound: FC(F)(F)COC(OCC(F)(F)F)OCC(F)(F)F [tris(Trifluoroethoxy)methane] (in DMSO); details: 2200 nM
Method: as §1

Hexafluoroglutaric acid = compound: O=C(O)C(F)(F)C(F)(F)C(F)(F)C(=O)O [Hexafluoroglutaric acid] (in DMSO)
Method: as §1

Perfluorohexanoic acid = compound: O=C(O)C(F)(F)C(F)(F)C(F)(F)C(F)(F)C(F)(F)F [Perfluorohexanoic acid] (in DMSO)
Method: as §1

[6] = compound: O=C(O)C(F)(F)C(F)(F)C(F)(F)OC(F)(C(F)(F)F)C(F)(F)F [Perfluoro-4-isopropoxybutanoic acid] (in DMSO); details: 2200 nM
Method: as §1

[7] = compound: O=C(O)C(F)(OC(F)(F)C(F)(F)C(F)(F)F)C(F)(F)F [Ammonium perfluoro-2-methyl-3-oxahexanoate] (in Water)
Method: as §1

[8] = compound: O=C(O)C(F)(OC(F)(F)C(F)(OC(F)(F)C(F)(OC(F)(F)C(F)(F)C(F)(F)F)C(F)(F)F)C(F)(F)F)C(F)(F)F [Perfluoro-(2,5,8-trimethyl-3,6,9-trioxadodecanoic)acid] (in DMSO); details: 370 nM
Method: as §1

[9] = compound: O=C(O)CCC(F)(F)C(F)(F)C(F)(F)F [3:3 Fluorotelomer carboxylic acid] (in DMSO); details: 2200 nM
Method: as §1

[10] = compound: O=S(=O)(O)C(F)(F)C(F)(F)C(F)(F)C(F)(F)F [Perfluorobutanesulfonic acid] (in DMSO)
Method: as §1

[11] = compound: OCC(F)(F)C(F)(F)C(F)(F)C(F)(F)C(F)(F)C(F)(F)CO [1H,1H,8H,8H-Perfluorooctane-1,8-diol] (in DMSO); details: 2200 nM
Method: as §1

[12] = compound: OCC(F)(F)C(F)(F)C(F)(F)C(F)(F)C(F)(F)C(F)(F)F [6:1 Fluorotelomer alcohol] (in DMSO); details: 2200 nM
Method: as §1

[13] = compound: OCC(F)(F)C(F)(F)C(F)(F)C(F)F [1H,1H,5H-Perfluoropentanol] (in DMSO); details: 2200 nM
Method: as §1

[14] = compound: OCC(F)(F)OC(F)(F)C(F)(F)OC(F)(F)CO [1H,1H,8H,8H-Perfluoro-3,6-dioxaoctane-1,8-diol] (in DMSO); details: 2200 nM
Method: as §1

[15] = compound: OCCCC(F)(F)C(F)(F)C(F)(F)C(F)(F)C(F)(F)C(F)(F)C(F)(F)C(F)(F)F [3-(Perfluorooctyl)propanol] (in DMSO); details: 2200 nM
Method: as §1

Test System	level (log10) [1]	level (log10) [2]	level (log10) [3]	level (log10) [4]	level (log10) [5]	level (log10) (Hexafluoroglutaric acid; 2200 nM)	level (log10) (Hexafluoroglutaric acid; 6700 nM)	level (log10) (Hexafluoroglutaric acid; 20000 nM)	level (log10) (Hexafluoroglutaric acid; 60000 nM)	level (log10) (Perfluorohexanoic acid; 2200 nM)	level (log10) (Perfluorohexanoic acid; 6700 nM)	level (log10) (Perfluorohexanoic acid; 20000 nM)	level (log10) (Perfluorohexanoic acid; 60000 nM)	level (log10) [6]	level (log10) ([7]; 2200 nM)	level (log10) ([7]; 6700 nM)	level (log10) ([7]; 20000 nM)	level (log10) ([7]; 60000 nM)	level (log10) [8]	level (log10) [9]	level (log10) ([10]; 2200 nM)	level (log10) ([10]; 6700 nM)	level (log10) ([10]; 20000 nM)	level (log10) ([10]; 60000 nM)	level (log10) [11]	level (log10) [12]	level (log10) [13]	level (log10) [14]	level (log10) [15]
BE3C:MMP-9	-0.0055 ± 0.015	-0.047 ± 0.048	0.019 ± 0.011	0 ± 0.038	0.002 ± 0.0085	-0.0025 ± 0.018	-0.0035 ± 0.023	-0.0025 ± 0.032	0.0145 ± 0.042	-0.023 ± 0.021	-0.0155 ± 0.018	-0.005 ± 0.0071	0.0145 ± 0.013	0.04 ± 0.023	-0.106 ± 0.054	-0.109 ± 0.051	-0.09 ± 0.03	-0.063 ± 0.035	0.0055 ± 0.011	0.0175 ± 0.03	-0.033 ± 0.021	-0.0125 ± 0.016	-0.0205 ± 0.0035	-0.0315 ± 0.0092	-0.0185 ± 0.00071	0.0205 ± 0.03	-0.001 ± 0.028	-0.0035 ± 0.011	0.015 ± 0.014
BE3C:PAI-I	-0.04 ± 0.048	-0.088 ± 0.02	-0.043 ± 0.034	-0.012 ± 0.044	0.0035 ± 0.03	-0.01 ± 0.0071	-0.0205 ± 0.016	-0.014 ± 0.027	0.002 ± 0.03	0.008 ± 0.0028	-0.019 ± 0.018	-0.029 ± 0.011	0.0065 ± 0.022	0.002 ± 0.0085	-0.128 ± 0.082	-0.0995 ± 0.057	-0.092 ± 0.044	-0.124 ± 0.012	-0.0405 ± 0.028	0.0035 ± 0.037	0.0055 ± 0.0092	-0.0015 ± 0.0035	-0.006 ± 0.013	0.008 ± 0.013	0.023 ± 0.021	-0.0635 ± 0.053	-0.001 ± 0.0085	-0.0035 ± 0.011	-0.016
BE3C:SRB	0.0015 ± 0.0092	0.0035 ± 0.018	0.0015 ± 0.013	0.007 ± 0.02	-0.006 ± 0.0028	0.0135 ± 0.019	0.0035 ± 0.0035	-0.005	0.0125 ± 0.012	-0.01 ± 0.0085	-0.001	-0.006 ± 0.0014	0.009 ± 0.018	0.006 ± 0.0071	0 ± 0.013	-0.003 ± 0.0042	0 ± 0.0014	0.003 ± 0.0099	-0.0025 ± 0.005	0.005 ± 0.023	-0.0005 ± 0.0064	0.001	-0.004 ± 0.0028	-0.003 ± 0.0014	0.0015 ± 0.0035	-0.004	-0.003 ± 0.0028	0.012 ± 0.017	0.0005 ± 0.00071
BE3C:tPA	-0.0395 ± 0.015	0.186 ± 0.035	0.0135 ± 0.011	0.002 ± 0.051	-0.0225 ± 0.028	-0.01 ± 0.02	-0.008 ± 0.0014	-0.0465 ± 0.005	-0.0085 ± 0.022	-0.0235 ± 0.067	-0.032 ± 0.054	-0.0405 ± 0.016	-0.046 ± 0.018	-0.006 ± 0.017	-0.053 ± 0.034	-0.101 ± 0.047	-0.0935 ± 0.021	-0.0945 ± 0.021	-0.013 ± 0.023	-0.0125 ± 0.022	-0.01 ± 0.014	0.0155 ± 0.022	-0.0135 ± 0.0078	0 ± 0.025	0.0125 ± 0.0064	-0.011 ± 0.0042	0.0025 ± 0.015	-0.011 ± 0.011	0.0155 ± 0.011
BE3C:uPA	0.005 ± 0.0085	0.008 ± 0.014	0.005 ± 0.0057	-0.001 ± 0.025	0.0045 ± 0.012	-0.0035 ± 0.025	-0.01 ± 0.0085	-0.017 ± 0.0042	-0.0075 ± 0.011	-0.0195 ± 0.029	-0.03 ± 0.013	-0.01 ± 0.018	0.0025 ± 0.016	-0.0025 ± 0.012	0.0405 ± 0.0078	0.033 ± 0.027	0.0315 ± 0.016	0.0245 ± 0.012	0.0115 ± 0.013	-0.0005 ± 0.043	-0.009 ± 0.0085	-0.0035 ± 0.0021	-0.007 ± 0.0042	-0.005 ± 0.0099	-0.0075 ± 0.0064	-0.0095 ± 0.022	-0.0015 ± 0.026	0.0135 ± 0.018	0.0005 ± 0.0078
BF4T:CCL2/MCP-1	0.0125 ± 0.033	0.032 ± 0.021	0.0665 ± 0.016	0.0155 ± 0.00071	0.0205 ± 0.063	0.0345 ± 0.1	0.0015 ± 0.043	-0.0225 ± 0.005	0.0085 ± 0.032	-0.007 ± 0.04	-0.0045 ± 0.0021	-0.012 ± 0.024	-0.0015 ± 0.052	0.022 ± 0.0014	-0.0025 ± 0.005	0.007 ± 0.031	0.005 ± 0.048	0.0285 ± 0.021	0.0175 ± 0.073	0.019 ± 0.051	0.0045 ± 0.022	0.028 ± 0.0014	0.026 ± 0.024	0.033 ± 0.018	0.0135 ± 0.0064	0.001 ± 0.0028	0.0165 ± 0.03	0.0455 ± 0.021	0.001 ± 0.014
BF4T:CCL26/Eotaxin-3	0.022 ± 0.035	-0.108 ± 0.14	0.003 ± 0.018	0.0165 ± 0.088	0.018 ± 0.035	0.022 ± 0.083	0.016 ± 0.054	0.0055 ± 0.042	0.043 ± 0.011	0.024 ± 0.0014	0.0135 ± 0.015	0.005 ± 0.024	0.0115 ± 0.011	0.027 ± 0.1	-0.0895 ± 0.042	-0.128 ± 0.03	-0.0995 ± 0.06	-0.137 ± 0.03	0.002 ± 0.0099	0.0125 ± 0.043	-0.028 ± 0.072	-0.057 ± 0.09	-0.014 ± 0.035	-0.003 ± 0.047	0.0135 ± 0.022	0.0465 ± 0.042	-0.004 ± 0.0071	0.0565 ± 0.03	-0.015 ± 0.041

Source: the supplement of paper PMC10331698
